Results as given in publication PMC7565926.
These are yes or no findings as the source states them, for the method shown. In cells and extracts the contact can be indirect. Some entries that bind do so weakly or less than the wild type. For some of these results: Tags and fused reporters may be left off the sequences shown. One block for each substance: values may come before it.

Amino acid sequences for entries named in this document (tags omitted). A change or cut given only in a name is not applied to a line headed by its entry. Residues count along the entry.
UniProt P10242: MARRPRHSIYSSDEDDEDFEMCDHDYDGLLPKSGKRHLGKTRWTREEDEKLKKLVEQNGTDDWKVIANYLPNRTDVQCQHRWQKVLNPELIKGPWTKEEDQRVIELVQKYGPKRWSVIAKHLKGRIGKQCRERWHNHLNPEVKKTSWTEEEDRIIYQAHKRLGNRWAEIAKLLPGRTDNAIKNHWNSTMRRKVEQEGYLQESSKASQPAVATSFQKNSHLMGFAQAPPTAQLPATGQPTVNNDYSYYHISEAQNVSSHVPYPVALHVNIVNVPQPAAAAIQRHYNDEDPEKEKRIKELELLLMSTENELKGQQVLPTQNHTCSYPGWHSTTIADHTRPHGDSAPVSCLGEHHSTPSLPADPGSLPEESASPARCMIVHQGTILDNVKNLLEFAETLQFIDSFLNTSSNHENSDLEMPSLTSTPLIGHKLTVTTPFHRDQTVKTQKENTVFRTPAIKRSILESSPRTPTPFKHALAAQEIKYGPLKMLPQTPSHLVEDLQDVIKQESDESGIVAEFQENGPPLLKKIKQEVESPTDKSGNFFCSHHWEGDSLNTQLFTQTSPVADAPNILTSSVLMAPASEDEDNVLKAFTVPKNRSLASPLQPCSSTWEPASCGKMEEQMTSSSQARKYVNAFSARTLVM
GST-Myb 1-212: residues 1-212 of P10242
GST-Myb 62-201: residues 62-201 of P10242

Experiments:
GST-Myb 62-201 = GST-Myb 62-201 (UniProt P10242); experiment: pull-down; GST fusion protein (1-2 micrograms) bound to glutathione agarose beads, incubated overnight at 4 °C with 10 uL in vitro translation in NETN buffer; bound proteins detected by immunoblot with anti-HA or anti-MYB; only the target purified
GST-Myb 1-212 = GST-Myb 1-212 (UniProt P10242); experiment: as above
HA-tagged NR4A3 = HA-tagged NR4A3 (UniProt Q92570); experiment: co-IP; Cos-7 cells co-transfected with HA-tagged NR4A3 and Myb; whole cell extract in RIPA buffer (50 mM Tris HCl pH 8.0, 150 mM NaCl, 2 mM EDTA, 1% NP-40, 0.5% deoxycholate, 0.1% SDS); immunoprecipitated overnight with anti-HA or control IgG; blot with anti-Myb
[1] = target: T1, GST-NR4A3 ligand binding domain (GST 360-626) (UniProt Q92570); experiment: pull-down; GST fusion protein (1-2 micrograms) bound to glutathione agarose beads, incubated overnight at 4 °C with 10 uL in vitro translation in NETN buffer; bound proteins detected by immunoblot with anti-HA or anti-MYB; only the target purified
T1 sequence: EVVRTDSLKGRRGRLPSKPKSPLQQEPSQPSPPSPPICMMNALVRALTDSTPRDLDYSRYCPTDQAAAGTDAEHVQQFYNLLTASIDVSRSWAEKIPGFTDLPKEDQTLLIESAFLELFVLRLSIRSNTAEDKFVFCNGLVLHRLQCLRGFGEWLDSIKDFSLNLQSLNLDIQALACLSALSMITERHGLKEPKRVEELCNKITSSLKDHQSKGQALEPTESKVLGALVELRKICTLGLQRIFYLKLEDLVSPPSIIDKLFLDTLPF

binding (GST-Myb 62-201): binds | binding (GST-Myb 1-212): binds
Substance: In vitro transcribed/translated full-length NR4A3 (HA-tagged) (from UniProt Q92570 1-626)

binding (HA-tagged NR4A3): binds
Substance: Myb (from UniProt P10242 1-640)

binding [1]: binds
Substance: In vitro transcribed/translated full-length Myb protein (from UniProt P10242 1-640)
